Measurements taken from article PMC6901542.
These are yes or no findings as the source states them, for the method shown. In cells and extracts the contact can be indirect.

Chains of the proteins cited; added tags and fusions are not shown. Residues count along the entry.
UniProt Q04206: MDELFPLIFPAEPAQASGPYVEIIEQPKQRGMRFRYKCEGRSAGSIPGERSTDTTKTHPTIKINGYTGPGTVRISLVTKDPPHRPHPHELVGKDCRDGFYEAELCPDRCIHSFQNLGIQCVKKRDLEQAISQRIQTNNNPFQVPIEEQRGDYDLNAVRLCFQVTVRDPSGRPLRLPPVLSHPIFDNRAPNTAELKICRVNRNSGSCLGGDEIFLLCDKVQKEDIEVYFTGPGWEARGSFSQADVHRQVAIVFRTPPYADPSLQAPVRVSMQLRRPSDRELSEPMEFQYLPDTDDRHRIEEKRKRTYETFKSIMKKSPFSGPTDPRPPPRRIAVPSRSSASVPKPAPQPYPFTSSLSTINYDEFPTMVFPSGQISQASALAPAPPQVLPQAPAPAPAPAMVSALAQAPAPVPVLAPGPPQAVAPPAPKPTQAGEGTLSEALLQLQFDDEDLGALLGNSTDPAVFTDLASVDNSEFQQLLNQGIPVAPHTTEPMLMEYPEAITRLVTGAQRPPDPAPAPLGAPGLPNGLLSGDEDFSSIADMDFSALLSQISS
UniProt P80188, residues 21-198: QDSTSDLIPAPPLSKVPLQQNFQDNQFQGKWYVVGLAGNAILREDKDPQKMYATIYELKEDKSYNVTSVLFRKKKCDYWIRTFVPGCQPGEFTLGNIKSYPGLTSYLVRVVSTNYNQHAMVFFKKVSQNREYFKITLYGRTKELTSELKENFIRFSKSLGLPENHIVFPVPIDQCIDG

Target: NF-κB RelA (p65), endogenous (human (endogenous in OSCC cells CAL-27 or SCC-9)) (UniProt Q04206)
Assay: co-IP; endogenous proteins; clarified supernatants incubated with antibody (LCN2, RPS3 or NF-κB/P65) for 2 h, then protein A/G magnetic beads overnight; washed three times with NETN buffer; western blot; RPS3-IP also done in LCN2 knock-down and LCN2-overexpressing stable cell lines

## lipocalin 2 (LCN2), endogenous (from UniProt P80188 21-198)
  binding: no binding
